Test results: paper PMC9806564
No constants are given. Whether binding was seen depends on the method and setting. In cells and extracts the contact can be indirect. Some results given as binding are weak or reduced against the parent protein; the word gives no strength. For some of these results: Where a sequence is shown, tags or fusion partners need not be part of it. One block for each molecule: values may come before it.

Protein sequences, listed by entry. Tags and fused reporters are not part of them.
UniProt Q9C9W9: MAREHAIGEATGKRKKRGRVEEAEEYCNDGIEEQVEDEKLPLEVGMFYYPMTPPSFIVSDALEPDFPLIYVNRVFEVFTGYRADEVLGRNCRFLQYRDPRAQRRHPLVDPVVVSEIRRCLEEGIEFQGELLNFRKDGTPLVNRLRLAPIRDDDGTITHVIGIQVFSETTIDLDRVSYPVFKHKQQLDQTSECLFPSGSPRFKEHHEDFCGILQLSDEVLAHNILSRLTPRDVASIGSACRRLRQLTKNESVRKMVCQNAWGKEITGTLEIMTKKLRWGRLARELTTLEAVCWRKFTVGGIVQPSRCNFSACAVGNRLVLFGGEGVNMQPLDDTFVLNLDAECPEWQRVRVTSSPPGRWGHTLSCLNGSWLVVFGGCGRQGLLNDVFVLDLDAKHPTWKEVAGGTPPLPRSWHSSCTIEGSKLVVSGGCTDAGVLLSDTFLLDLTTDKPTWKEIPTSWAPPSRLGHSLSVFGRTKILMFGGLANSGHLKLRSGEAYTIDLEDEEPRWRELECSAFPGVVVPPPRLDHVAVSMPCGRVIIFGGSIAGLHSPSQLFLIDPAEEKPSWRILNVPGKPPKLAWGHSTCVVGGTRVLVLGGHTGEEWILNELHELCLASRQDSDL

What was measured:
[1] = molecular target: FKF1, split-Venus BiFC fusion (Arabidopsis thaliana) (UniProt Q9C9W9); test: split reporter; BiFC with split Venus in N. benthamiana leaves; fluorescence detected on the third day after infiltration
[2] = molecular target: T1, SOS2/CIPK24, BiFC fusion (Arabidopsis thaliana) (UniProt Q9LDI3); test: split reporter; BiFC in N. benthamiana leaves, transient expression, YFP signals under a confocal microscope; leaves untreated or treated with NaCl or Ca2+ (Supplemental Figure S6, Figure 6D, Supplemental Figure S10)
T1 sequence: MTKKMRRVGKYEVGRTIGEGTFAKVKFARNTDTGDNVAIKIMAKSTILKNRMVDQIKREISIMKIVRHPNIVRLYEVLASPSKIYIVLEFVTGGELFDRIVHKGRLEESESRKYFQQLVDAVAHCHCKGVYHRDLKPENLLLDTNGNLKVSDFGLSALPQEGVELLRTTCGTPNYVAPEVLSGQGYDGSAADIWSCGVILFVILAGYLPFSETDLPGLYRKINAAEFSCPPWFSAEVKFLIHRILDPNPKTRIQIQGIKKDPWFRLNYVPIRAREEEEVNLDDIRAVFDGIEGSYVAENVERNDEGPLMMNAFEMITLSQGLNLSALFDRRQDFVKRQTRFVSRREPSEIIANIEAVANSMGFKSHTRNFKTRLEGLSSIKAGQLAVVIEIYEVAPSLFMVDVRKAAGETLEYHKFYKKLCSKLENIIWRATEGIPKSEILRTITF

[3] = molecular target: T2, GIGANTEA, BiFC fusion (Arabidopsis thaliana) (UniProt Q9SQI2); test: as above
T2 sequence: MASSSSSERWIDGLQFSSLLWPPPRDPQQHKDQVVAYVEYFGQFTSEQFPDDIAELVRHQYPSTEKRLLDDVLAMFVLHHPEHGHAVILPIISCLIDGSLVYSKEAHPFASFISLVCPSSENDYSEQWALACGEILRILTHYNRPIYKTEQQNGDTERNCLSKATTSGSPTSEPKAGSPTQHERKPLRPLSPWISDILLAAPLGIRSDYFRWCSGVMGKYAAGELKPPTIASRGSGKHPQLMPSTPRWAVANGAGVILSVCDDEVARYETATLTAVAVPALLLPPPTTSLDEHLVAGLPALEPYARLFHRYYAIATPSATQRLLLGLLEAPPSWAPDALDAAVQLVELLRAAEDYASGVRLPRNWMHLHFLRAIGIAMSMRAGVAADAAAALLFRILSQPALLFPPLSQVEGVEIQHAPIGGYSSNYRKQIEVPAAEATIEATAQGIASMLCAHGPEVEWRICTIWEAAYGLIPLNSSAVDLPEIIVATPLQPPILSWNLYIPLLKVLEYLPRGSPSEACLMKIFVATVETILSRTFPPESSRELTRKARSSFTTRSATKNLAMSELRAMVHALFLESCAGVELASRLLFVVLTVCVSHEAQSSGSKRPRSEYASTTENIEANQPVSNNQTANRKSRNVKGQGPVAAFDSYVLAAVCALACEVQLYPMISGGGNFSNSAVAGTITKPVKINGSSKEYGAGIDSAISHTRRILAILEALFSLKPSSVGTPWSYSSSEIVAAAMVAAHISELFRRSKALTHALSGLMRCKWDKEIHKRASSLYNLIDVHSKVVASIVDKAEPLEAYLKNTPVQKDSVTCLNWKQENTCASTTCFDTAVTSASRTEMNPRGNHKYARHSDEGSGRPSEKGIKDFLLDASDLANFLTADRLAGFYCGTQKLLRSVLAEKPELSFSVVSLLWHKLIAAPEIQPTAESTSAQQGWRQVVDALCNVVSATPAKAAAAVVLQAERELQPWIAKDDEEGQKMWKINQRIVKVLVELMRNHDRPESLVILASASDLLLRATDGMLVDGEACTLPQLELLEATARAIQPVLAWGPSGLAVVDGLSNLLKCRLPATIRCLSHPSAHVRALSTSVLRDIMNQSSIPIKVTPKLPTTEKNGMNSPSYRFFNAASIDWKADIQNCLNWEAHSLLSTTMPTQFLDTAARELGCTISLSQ

[4] = molecular target: T3, GIGANTEA, HA-tagged (GI-HA) (Arabidopsis thaliana) (UniProt Q9SQI2); test: co-IP; total proteins of N. benthamiana leaves transiently expressing both proteins; GI-HA precipitated with anti-HA on protein A agarose, SOS3 detected with anti-MYC; leaves untreated or treated with 100 mM NaCl for 8 h or 3 mM CaCl2; extraction buffer 100 mM Tris-HCl pH 7.5, 150 mM NaCl, 0.5% NP-40, 1 mM EDTA, 3 mM DTT; 4°C
T3 sequence: T2 sequence

[5] = molecular target: SOS3-FLAG (Arabidopsis thaliana) (UniProt O81223); test: co-IP; total proteins of N. benthamiana leaves transiently co-expressing SOS3-FLAG with GI-HA and/or FKF1-MYC; immunoprecipitation with anti-FLAG; leaves untreated or treated with 100 mM NaCl for 8 h
[6] = molecular target: SOS3-GFP (Arabidopsis thaliana) (UniProt O81223); test: co-IP; total proteins of N. benthamiana leaves transiently co-expressing GI-HA and GFP-tagged SOS3 proteins; immunoprecipitation with anti-GFP
[7] = molecular target: SOS3-C3A-GFP (Arabidopsis thaliana) (UniProt O81223); test: as above
[8] = molecular target: SOS3-G2A-GFP (Arabidopsis thaliana) (UniProt O81223); test: as above

binding [1]: binds
Molecule: SOS3, split-Venus BiFC fusion (used with FKF1) (from UniProt O81223 1-222)

binding [2]: binds | binding [3]: binds
Molecule: SOS3, BiFC fusion (used with GI and SOS2) (from UniProt O81223 1-222)

binding [4]: binds
Molecule: SALT OVERLY …3/CALCINEURIN B-LIKE4, MYC-tagged (SOS3-MYC) (from UniProt O81223 1-222)

binding [2]: binds | binding [3]: binds
Molecule: SOS3-G2A, BiFC fusion (from UniProt O81223 1-222)

binding [5]: binds
Molecule: FLAVIN-BINDING, KELCH REPEAT, F-BOX1, MYC-tagged (FKF1-MYC) (from UniProt Q9C9W9 1-619)

binding [2]: binds | binding [3]: binds
Molecule: SOS3-C3A, BiFC fusion (from UniProt O81223 1-222)

binding [5]: binds | binding [6]: binds | binding [7]: binds | binding [8]: binds
B1: GIGANTEA, HA-tagged (GI-HA) (protein, UniProt Q9SQI2 1-1173)
chain: T2 sequence
